{
  "source": "paper PMC11238352",
  "about": "“Combination of dual JAK/HDAC inhibitor with regorafenib synergistically reduces tumor growth, metastasis, and regorafenib-induced toxicity in colorectal cancer” (Journal of Experimental & Clinical Cancer Research : CR, 2024)",
  "test_system": "SW480 cells",
  "experiment": "Whole transcriptomic sequencing (RNA-seq)",
  "type": "cell-based",
  "conditions": "SW480, 500 nM, 12 h, volcano plots",
  "data": [
    {"smiles": "CNC(=O)c1cc(Oc2ccc(NC(=O)Nc3ccc(Cl)c(C(F)(F)F)c3)c(F)c2)ccn1", "note": "[regorafenib]", "values": [
      {"measurement": "Upregulated protein-coding genes vs. DMSO", "result": 53},
      {"measurement": "downregulated protein-coding genes vs. DMSO", "result": 24}
    ]}
  ]
}
